In assay [1] the target is dynamin-related protein 1 (DRP1) (mouse (endogenous in heart ventricles)) (UniProt Q8K1M6). The experiment in a line: native gel or EMSA. In general terms: In EMSA bound probe runs differently from free probe, usually more slowly.
For assay [2] the target is unchanged. The experiment in a line: native gel or EMSA. This is another data set of the same source.

Protein sequences, listed by entry. Tags and fused reporters are not part of them.
UniProt Q8K1M6: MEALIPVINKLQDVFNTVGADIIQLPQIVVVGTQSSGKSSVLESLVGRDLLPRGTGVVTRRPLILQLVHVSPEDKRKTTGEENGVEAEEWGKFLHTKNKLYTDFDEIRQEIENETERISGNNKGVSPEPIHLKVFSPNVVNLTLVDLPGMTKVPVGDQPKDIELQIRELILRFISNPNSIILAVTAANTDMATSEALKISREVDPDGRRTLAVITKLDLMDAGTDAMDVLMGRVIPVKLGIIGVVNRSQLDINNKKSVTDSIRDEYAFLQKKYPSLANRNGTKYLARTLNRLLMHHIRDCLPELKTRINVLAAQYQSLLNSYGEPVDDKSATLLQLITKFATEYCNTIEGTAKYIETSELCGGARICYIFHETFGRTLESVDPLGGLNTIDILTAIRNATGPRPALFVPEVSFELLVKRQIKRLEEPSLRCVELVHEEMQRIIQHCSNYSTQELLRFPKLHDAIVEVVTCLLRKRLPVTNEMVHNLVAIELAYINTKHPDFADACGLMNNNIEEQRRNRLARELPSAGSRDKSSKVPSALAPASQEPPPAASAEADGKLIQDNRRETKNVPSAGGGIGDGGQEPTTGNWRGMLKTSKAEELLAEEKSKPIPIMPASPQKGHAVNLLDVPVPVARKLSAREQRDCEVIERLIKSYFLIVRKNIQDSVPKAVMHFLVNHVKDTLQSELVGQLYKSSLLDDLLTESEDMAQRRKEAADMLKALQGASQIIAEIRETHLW

Read-outs that look alike come from different tables or passages of the source. No constants are given. Whether binding was seen depends on the method and setting. Some binding calls cover weakened binding; strength is not graded here.

With “dynamin-related protein 1 (DRP1) (from UniProt Q8K1M6 1-736)”, the binding entry in assay [1] and in assay [2] was “binds” in each case.

Values taken from article doi:10.1101/2021.11.29.470468.
